Laboratory results as given in publication PMC13458699.
Results are given in words; binding and its absence hold for the method and conditions named. Binding seen in cells or lysates may run through a third protein. These calls come from enrichment with a bait or labelling near it, and not all partners need be listed. A no says only that the protein was not detected with the bait.

Protein sequences, listed by entry. Tags and fused reporters are not part of them.
UniProt Q5MIZ7: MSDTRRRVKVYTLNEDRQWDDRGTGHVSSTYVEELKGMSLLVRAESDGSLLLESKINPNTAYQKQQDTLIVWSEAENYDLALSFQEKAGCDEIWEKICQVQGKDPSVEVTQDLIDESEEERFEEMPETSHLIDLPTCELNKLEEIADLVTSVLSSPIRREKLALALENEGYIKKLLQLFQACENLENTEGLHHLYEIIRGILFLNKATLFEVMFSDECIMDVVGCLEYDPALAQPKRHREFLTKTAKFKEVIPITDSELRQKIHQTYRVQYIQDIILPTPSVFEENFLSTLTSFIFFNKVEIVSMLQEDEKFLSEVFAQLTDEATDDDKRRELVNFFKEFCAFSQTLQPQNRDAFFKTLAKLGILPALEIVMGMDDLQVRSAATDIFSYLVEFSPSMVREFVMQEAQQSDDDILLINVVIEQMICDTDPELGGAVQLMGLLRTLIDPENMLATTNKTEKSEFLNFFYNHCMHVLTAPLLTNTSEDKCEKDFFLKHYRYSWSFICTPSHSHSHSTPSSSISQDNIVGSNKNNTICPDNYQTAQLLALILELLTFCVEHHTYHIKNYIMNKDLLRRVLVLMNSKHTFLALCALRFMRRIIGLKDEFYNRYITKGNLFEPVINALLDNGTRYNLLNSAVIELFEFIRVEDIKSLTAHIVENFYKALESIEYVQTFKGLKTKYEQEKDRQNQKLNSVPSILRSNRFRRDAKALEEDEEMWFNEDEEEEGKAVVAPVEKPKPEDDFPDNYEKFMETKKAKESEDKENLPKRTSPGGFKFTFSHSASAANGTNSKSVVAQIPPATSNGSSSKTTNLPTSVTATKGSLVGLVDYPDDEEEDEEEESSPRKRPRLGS

Target: T1, CCDC6 (endogenous, RPE1 cells) (human (endogenous in RPE1)) (UniProt Q16204)
T1 sequence: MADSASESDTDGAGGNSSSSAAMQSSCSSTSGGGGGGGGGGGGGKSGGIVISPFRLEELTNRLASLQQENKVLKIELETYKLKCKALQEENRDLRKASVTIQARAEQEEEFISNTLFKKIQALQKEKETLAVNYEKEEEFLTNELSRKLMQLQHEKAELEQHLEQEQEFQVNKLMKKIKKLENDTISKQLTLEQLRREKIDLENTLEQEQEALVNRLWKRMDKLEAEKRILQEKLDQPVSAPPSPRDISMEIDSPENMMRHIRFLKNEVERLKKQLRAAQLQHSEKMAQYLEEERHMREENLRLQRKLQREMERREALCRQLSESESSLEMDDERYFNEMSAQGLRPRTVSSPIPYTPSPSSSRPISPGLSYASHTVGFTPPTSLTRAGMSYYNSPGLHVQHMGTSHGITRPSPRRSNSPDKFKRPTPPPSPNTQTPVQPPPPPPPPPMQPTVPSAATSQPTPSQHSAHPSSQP
Test: affinity purification with mass spectrometry; IP with an anti-CCDC6 antibody from RPE1 lysates, proteins at endogenous levels; WT compared with CCDC6-/-, FBXO42-/- and PPP4C knock-down (shRNA) cells

binding: no binding
Substance: PPP4R3B (endogenous, RPE1 cells) (from UniProt Q5MIZ7 1-849)
